The results in this text go back to PubChem BioAssay AID328 (DTP/NCI, 2004).

In the assay the test system is BDF1 mice, P388 leukemia ip, median survival T/C. Put plainly: NCI In Vivo Anticancer Drug Screen. Data for tumor model P388 Leukemia (intraperitoneal) in B6D2F1 (BDF1) mice. The following applies: T/C endpoint: median survival time, higher T/C = longer survival. In a few lines: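 Transplantable tumour in mice; compound vs vehicle dosing; survival scored; ratio of treated to control reported.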

[1] abbreviates: dose: 50.0 mg/kg/injection, schedule: Q01DX009 (ip), vehicle: saline.
The mark [2] stands for this setting: dose: 100.0 mg/kg/injection, schedule: Q01DX009 (ip), vehicle: saline.
Where [3] appears, read: dose: 200.0 mg/kg/injection, schedule: Q01DX009 (ip), vehicle: saline with Tween-80.
The mark [4] stands for this setting: dose: 200.0 mg/kg/injection, schedule: Q01DX009 (ip), vehicle: other.
Where [5] appears, read: dose: 400.0 mg/kg/injection, schedule: Q01DX009 (ip), vehicle: other.
Where [6] appears, read: dose: 50.0 mg/kg/injection, schedule: Q01DX009 (ip), vehicle: saline with Tween-80.
Where [7] appears, read: dose: 100.0 mg/kg/injection, schedule: Q01DX009 (ip), vehicle: saline with Tween-80.

The list is a part of this screen's results and no random one: it is rich in T/C values a quarter to a half above the control, in often repeated tests (any T/C) and in doses without a T/C. Other doses and runs of a compound stand elsewhere. T/C gives the treated animals as a percentage of the vehicle group. Some doses have a count of surviving animals in place of a T/C: the source holds a T/C of zero for them, seemingly a mark for toxic or unscored doses. Some doses without a T/C left all or most animals alive at the check, yet need not have been tolerated: the source hardly ever lists a survival T/C far under the control, and the zero likely stands for such cases as well. Counts of survivors are from the toxicity check (mostly the fifth day) where no day follows; animals may have died later. Schedules are NCI's codes, read here as Q, the interval in days (D) or hours (H), X, the number of doses. Some doses were run more than once; the results are listed from low to high. For survival time, this PubChem deposit counts one and a half times the control or more as active, and values a quarter to a half above the control carry no call in these data; other NCI protocols may use other cut-offs. Additions like (4×) stand for listed records that agree. Some T/C values are followed by the survivors on the day toxicity was checked, most often the fifth; where none is given, no animal had died by that day. Starred links: 1 amine or outer side, 2 acyl side, 3 side chain; linkers in the order of their positions; H or OH if unused. Positions of bridges follow the written chain, without caps; N, C: chain ends. Non-standard residues stand in square brackets, D forms with d. Residues, ends and D or L forms follow the SMILES beside them. Chains are numbered I, II in the order given. Actinocin(1to9) = Cc1c2oc3c(C)ccc(C(=O)[*:2])c3nc-2c(C(=O)[*:1])c(N)c1=O; NMeV = CN[CH](C(=O)O)C(C)C; Sar = CNCC(=O)O

In the case of `OCC1OC(n2cnc3cncnc32)C(O)C1O` (stereo unspecified), the T/C runs as follows: (dose: 6.25 mg/kg/injection, schedule: Q01DX009 (ip), vehicle: saline) 125, 131, 134, 140 % of control; (dose: 12.5 mg/kg/injection, schedule: Q01DX009 (ip), vehicle: saline) 103, 120, 125, 126 % of control; (dose: 12.5 mg/kg/injection, schedule: Q04DX003 (ip), vehicle: saline) 127 % of control; (dose: 25.0 mg/kg/injection, schedule: Q04DX003 (ip), vehicle: saline) 136 % of control. Also, the survivor count is, setting by setting: (dose: 25.0 mg/kg/injection, schedule: Q01DX009 (ip), vehicle: saline) 3 of 3 and 6 of 6; under setting [1], 1 of 3 and 6 of 6.
`[NH-]CC(=O)[N-]CC(=O)O.[NH-]CC(=O)[N-]CC(=O)O.[Ni]`: the survivor count (dose: 100.0 mg/kg/injection, schedule: Q04DX003 (ip), vehicle: saline) is reported as 1 of 6 and the survivor count (dose: 200.0 mg/kg/injection, schedule: Q04DX003 (ip), vehicle: saline) is given as 0 of 6.
For the compound `CCC(C)C1NC(=O)C(NC(=O)c2c3nc4c(C(=O)NC5C(=O)NC(C(C)C)C(=O)N6CCCC6C(=O)N(C)CC(=O)N(C)C(C(C)C)C(=O)OC5C)ccc(C)c4oc-3c(C)c(=O)c2N)C(C)OC(=O)C(C(C)C)N(C)C(=O)CN(C)C(=O)C2CCCN2C1=O` (stereo unspecified) (I: TIP[Sar][NMeV] / II: TVP[Sar][NMeV]; ester I:1-I:C, II:1-II:C; linker I:N-II:N via Actinocin(1to9); configuration not given here), the survivor count is, setting by setting: (dose: 0.2 mg/kg/injection, schedule: Q01DX010 (ip), vehicle: saline) 6 of 6; (dose: 0.4 mg/kg/injection, schedule: Q01DX010 (ip), vehicle: saline) 3 of 6; (dose: 1.6 mg/kg/injection, schedule: Q01DX001 (ip), vehicle: water) 1 of 10; (dose: 400.0 micrograms/kg/injection, schedule: Q01DX010 (ip), vehicle: saline) 6 of 6. For the same compound, the T/C reads like this: (dose: 6.3 micrograms/kg/injection, schedule: Q04DX003 (ip), vehicle: saline) 131 % of control; (dose: 12.5 micrograms/kg/injection, schedule: Q01DX001 (ip), vehicle: saline) 131 % of control; (dose: 12.5 micrograms/kg/injection, schedule: Q04DX003 (ip), vehicle: saline) 145 % of control; (dose: 25.0 micrograms/kg/injection, schedule: Q01DX001 (ip), vehicle: saline) 145 % of control.
`O=C1C=CC(=O)N1Cc1ccco1`: the survivor count (dose: 200.0 mg/kg/injection, schedule: Q01DX009 (ip), vehicle: saline) is on record as 6 of 6.
For `COC(=O)CC1(O)C=CC(=O)C=C1`, the survivor count is reported as 2 of 4 under setting [1] and 0 of 4 under setting [2].
In the case of `CN1CCC2(CC1)c1ccccc1-c1ccccc12`, the survivor count under setting [3] was 0 of 6.
On to `CCO/C=C1\SC(=S)N(c2ccccc2C)C1=O`, for which the T/C (dose: 29.3 mg/kg/injection, schedule: Q04DX003 (ip), vehicle: saline with Tween-80) is 127 % of control; the T/C (dose: 44.0 mg/kg/injection, schedule: Q04DX003 (ip), vehicle: saline with Tween-80) is 127 % of control; the T/C (dose: 66.0 mg/kg/injection, schedule: Q04DX003 (ip), vehicle: saline with Tween-80) is 136 % of control; the T/C (dose: 88.0 mg/kg/injection, schedule: Q01DX009 (ip), vehicle: Klucel (hydroxypropylcellulose) (HPC)) was 144 % of control; the T/C (dose: 88.0 mg/kg/injection, schedule: Q04DX003 (ip), vehicle: saline with Tween-80) is 125 % of control; the T/C (dose: 100.0 mg/kg/injection, schedule: Q01DX009 (ip), vehicle: Klucel (hydroxypropylcellulose) (HPC)) is 128 % of control. Also, the T/C (dose: 100.0 mg/kg/injection, schedule: Q04DX003 (ip), vehicle: saline with Tween-80) is 136 % of control (2×); the T/C (dose: 132.0 mg/kg/injection, schedule: Q04DX003 (ip), vehicle: saline with Tween-80) was 140 % of control (2×); the T/C (dose: 200.0 mg/kg/injection, schedule: Q04DX003 (ip), vehicle: saline with Tween-80) was 130, 131, 140 % of control [5 of 6 alive]; the T/C (dose: 300.0 mg/kg/injection, schedule: Q04DX003 (ip), vehicle: saline with Tween-80) was 140 % of control. Moreover, the survivor count is given as 5 of 6 (dose: 50.0 mg/kg/injection, schedule: Q01DX009 (ip), vehicle: Klucel (hydroxypropylcellulose) (HPC)); 5 of 6 (dose: 132.0 mg/kg/injection, schedule: Q01DX009 (ip), vehicle: Klucel (hydroxypropylcellulose) (HPC)); 2 of 6 (dose: 200.0 mg/kg/injection, schedule: Q01DX009 (ip), vehicle: Klucel (hydroxypropylcellulose) (HPC)); 3 of 6 (dose: 300.0 mg/kg/injection, schedule: Q01DX009 (ip), vehicle: Klucel (hydroxypropylcellulose) (HPC)); 5 of 6 (dose: 400.0 mg/kg/injection, schedule: Q04DX003 (ip), vehicle: saline with Tween-80).
Turning to `O=C1CCCC2C3CC(CN12)C1CC(O)CCN1C3` (stereo unspecified), the survivor count (dose: 160.0 mg/kg/injection, schedule: Q01DX010 (ip), vehicle: saline) was 2 of 6.
For the compound `C[C@]12CCC(=O)C=C1CC[C@H]1[C@@H]3C[C@@H](O)[C@](O)(C(=O)CO)[C@@]3(C)C[C@H](O)[C@@]12F`, the survivor count (dose: 400.0 mg/kg/injection, schedule: Q01DX009 (ip), vehicle: saline) was 6 of 6.
Turning to `COC(=O)[C@]1(C)CCC[C@]2(C)[C@H]3CC4OO[C@@]3(CC[C@H]21)[C@H]1O[C@@]41C(C)C`, the T/C under setting [4] is 140 % of control. Moreover, the survivor count runs as follows: (dose: 300.0 mg/kg/injection, schedule: Q01DX009 (ip), vehicle: other) 3 of 6; under setting [5], 5 of 6.
Turning to `COc1cc2c(cc1OC)-c1c(C)c3ccc(OC)c(NCc4ccccc4)c3c[n+]1CC2`, the survivor count (dose: 12.5 mg/kg/injection, schedule: Q04DX003 (ip), vehicle: other) is reported as 4 of 6 and the survivor count (dose: 25.0 mg/kg/injection, schedule: Q04DX003 (ip), vehicle: other) is on record as 0 of 6.
With `OCCN(CCO)c1cc(O)cc(O)c1`, the survivor count is, setting by setting: under setting [6], 6 of 6; under setting [7], 6 of 6; under setting [3], 6 of 6; (dose: 400.0 mg/kg/injection, schedule: Q01DX009 (ip), vehicle: saline with Tween-80) 6 of 6.
As for `CN(C)[C@@H]1C(=O)C(C(=O)NCNC(CO)(CO)CO)=C(O)[C@@]2(O)C(=O)C3=C(O)c4c(O)cccc4[C@@](C)(O)[C@H]3C[C@@H]12`, under “dose: 400.0 mg/kg/injection, schedule: Q04DX003 (ip), vehicle: saline”, the survivor count is given as 5 of 6.
For `CC(CN(C)C)CN1c2ccccc2Sc2ccccc21` (stereo unspecified), the T/C was 131 % of control (dose: 12.5 mg/kg/injection, schedule: Q01DX009 (ip), vehicle: saline with Tween-80) and 126 % of control (dose: 25.0 mg/kg/injection, schedule: Q04DX003 (ip), vehicle: saline with Tween-80). Further, the survivor count runs as follows: (dose: 33.0 mg/kg/injection, schedule: Q04DX003 (ip), vehicle: saline with Tween-80) 6 of 6; under setting [6], 3 of 6; under setting [1], 3 of 6; under setting [7], 1 of 6; under setting [2], 0 of 6; (dose: 100.0 mg/kg/injection, schedule: Q04DX003 (ip), vehicle: Klucel (hydroxypropylcellulose) (HPC)) 0 of 6.
`CC(C)CC(B1OCCO1)(C1CCCCC1)C1CCCCC1`: the survivor count by setting is: (dose: 100.0 mg/kg/injection, schedule: Q01DX009 (ip), vehicle: other) 6 of 6; under setting [4], 6 of 6; under setting [5], 6 of 6.
As to `CNC(=S)N/N=C(/C)CCc1c(C)nn(C(=S)NC)c1C`, the survivor count (dose: 83.75 mg/kg/injection, schedule: Q01DX009 (ip), vehicle: Klucel (hydroxypropylcellulose) (HPC)) is 6 of 6; the survivor count (dose: 167.5 mg/kg/injection, schedule: Q01DX009 (ip), vehicle: Klucel (hydroxypropylcellulose) (HPC)) is 0 of 6; the survivor count (dose: 335.0 mg/kg/injection, schedule: Q01DX009 (ip), vehicle: Klucel (hydroxypropylcellulose) (HPC)) was 0 of 6.
